Out of some 53,000 sequences screened, about 3,700 (7%) were called active.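 The calls were made as follows: active = gene knockdowns whose robust z-score for IL-1 alpha signal is at least 2 or at most -2, so actives lie on both sides; inactive = the rest.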 The list shows a part of the results.

Data on 69 sequences can be found in PubChem BioAssay AID1508600 (Functional Genomics Laboratory (NCATS/FGL), 2020).

The assay is described as follows: Components of the Cytosolic LPS Sensing Pathway: Gene Identification via Genome-wide siRNA Screen. The conditions noted are these: RAW264.7 macrophages, IL-1a HTRF, actives lie on both sides, screened at 100 nM (by protocol), cells primed 5 h with Pam3CSK4 first. The text has this:
Non-canonical inflammasome activation by cytosolic LPS is a critical component of the host response to Gram-negative bacterial infection, however we lack a comprehensive understanding of the cellular processes that control this pathway. Here we describe a genome-wide siRNA screen to identify genes regulating the mouse macrophage IL-1 alpha response to cytosolic LPS.
RAW264.7 cells were maintained in complete DMEM media, comprising DMEM with 4.5 g/L glucose, 10% FBS (Gemini Bio-Products, West Sacramento, CA), 2 mM Glutamine (Lonza) and 20 mM HEPES (Lonza), hereafter complete DMEM.
The RNAi screen was conducted in 384-well format using the Ambion Silencer Mouse Genome siRNA Library (#4391425), which consists of three unique, nonoverlapping, nonpooled siRNAs for each of 17,000 gene targets. siRNA reagents ([…]) were stamped into 384-well white flat-bottom microplates (Corning, 3570) using a Velocity11 VPrep liquid handling system (Agilent) integrated into a BioCel robotic platform (Agilent) in columns 1-22, leaving columns 23-24 empty for negative (Ambion, Negative control #1) and positive (mouse Casp4) controls, respectively. The median value of each plate's negative control column was used to normalize sample wells, and the positive control was used to assess transfection efficiency and assay performance.
Lipofectamine RNAiMAX Transfection Reagent ([…]; Invitrogen) was added in […] serum-free, antibiotic-free media to plate wells using a Thermo Scientific Matrix WellMate and Microplate Stacker. Plates were incubated for 45 min at room temperature to allow for the sufficient formation of siRNA-lipid complexes. Cells were seeded at a density of 1x10^4 cells per well in 20 microL media containing 20% (vol/vol) FBS without antibiotics. The final concentration of siRNA in each well was 100 nM. Cells were cultured for 48h at 37 degrees C in 5% CO2 before addition of […] of TLR ligand Pam3CSK4 for 5 hours. The medium was then removed, replaced with […] growth media and cell were transfected with […] of LipidA and TransIT-TKO (Mirus) for 24 hour. At the end of the LipidA treatment, […] of supernatant was transferred to a 384 Greiner Bio-one non-binding low volume plate and […] of IL-1a HTRF reagent (Cisbio, 62MIL1APEH) was added and incubated at room temperature overnight. The plates were read on an EnVision plate reader (PerkinElmer). Cell viability was measured by adding 20ul Cell Titer Glo to the original plate and running a luminescence read on the EnVision. The quantified IL-1a signal for each siRNA gene-targeted well was divided by the median of the negative control wells and multiplied by 100 to achieve a negative control normalized value for each well/siRNA. This normalized value was then used to generate a robust z-score by first taking the log of each value and then by subtracting the median and dividing by the […].
In general terms: TR-FRET usually uses a lanthanide donor and a delayed reading to cut background.
Take CCAAGUAGAUAGGAAUUAUTT against Eps8: the z-score was inactive: 2.

With GGGUGGACCUUCGGAAUUATT against Mrpl23, the z-score is inactive: 1.52.

With GGCUUCAAAACAAACAUCATT against Hsd17b2, the z-score was inactive: 0.289.

In the case of GGAGACAGCAAAAGGGCUGTT against Macrod1, the z-score is inactive: 1.18.

For the sequence GGAGGAAAAGAGACAGCUCTT against Kank2, the z-score was active: -2.41.

Turning to CCUGGUAAUCACAAUUUCGTT against Tor1b, the z-score was inactive: -0.655.

For GCUCAAUGUUUGGCAACUUTT against Olfr1087, the z-score is inactive: -1.7.

As for GGAUUAUGGUCUCAUUGUCTT against Exd2, the z-score is inactive: 0.0549.

GGAUAUGUACUGUCCAUCUTT against B3galt4: the z-score was inactive: 0.563.

On to GCAAGCACGUCAGAAUCUCTT against Pln, for which the z-score was active: 2.32.

GGAAGUCAUUCUUGAGAAGTT against Gm10413: the z-score is inactive: 0.732.

Take CCACUAUCGCAUACAGCAATT against Olfr215: the z-score was inactive: 0.562.

In the case of GCAGUCAUUCAAGGUUCCUTT against Hmces, the z-score was inactive: -0.231.

Consider GGAAGUAUAAGUGAGCAGATT against Dbnl, for which the z-score is inactive: -0.579.

GCAUUUUGCUUACUUACUGTT against Marchf2: the z-score is inactive: 0.0293.

Turning to GCAAGUCAGACUCCUAGUGTT against Daw1, the z-score was inactive: 1.36.

CCUUUAGUGUGGGUUUAUUTT against Mcm10: the z-score is inactive: 0.38.

For GCCAGUGUCUUAAAAGUUUTT against Trat1, the z-score is inactive: -0.285.

With GGCUGGUUGAAGGUUGUGATT against Teddm1a, the z-score was inactive: -1.03.

As for GCACCUGACAGAUACUUCCTT against Ints4, the z-score was active: -2.1.

For the sequence GGGCAAAAUAUAGCAAUGATT against Vmn1r233, the z-score was active: -2.11.

GGCACUACGUGAUGUAUUATT against Tle1: the z-score was inactive: -0.276.

Regarding GGCAGAAUAUGUCAACUCGTT against Ddx31, the z-score was inactive: -1.21.

For CUUUUGUAAAGCCUUCCACTT against Zfp708, the z-score was inactive: -0.259.

Regarding GGAAGACACACAGUACAUGTT against Rfx2, the z-score is active: 2.92.

As for CCUAUACCUUGGACUUCCGTT against Mfsd2a, the z-score is inactive: -1.46.

On to GGUUGAAUGAGGUUAUAAGTT against Anks4b, for which the z-score is inactive: -0.973.

Regarding GGUCUUUUGGAAUCUCUGGTT against Crip3, the z-score was inactive: -0.548.

Regarding GGAACAAAUUAGAAUAGCUTT against Rnf11, the z-score was inactive: -0.434.

On to GGACAACAUUGACAAGUUCTT against Clcn7, for which the z-score was inactive: 1.36.

As to GGCAACUGAAAUGUUUGUUTT against Rap2c, the z-score is active: 2.14.

For GGACGAAUUUGAGGAAAUATT against Lrp4, the z-score was inactive: -0.596.

For GGAGUGCUUUUAAAUCCCUTT against Rreb1, the z-score was inactive: -1.43.

As to GGAGGUUCGGCUAAAACUGTT against BC005624, the z-score is inactive: -1.58.

On to GCGAGGUGAAAAGCUUCUGTT against Sobp, for which the z-score is inactive: -0.433.

On to GGUGUACCAAGUGUUUUCATT against Faf2, for which the z-score is active: 3.08.

For the sequence GGCAUUUUCAUGUGCUUUGTT against Wdhd1, the z-score was inactive: -0.364.

Consider CGGUUAAAUGAUUUUGCUATT against Cox5a, for which the z-score was inactive: 0.815.

On to GGAAAUUCAAAAGACGCAGTT against Orm2, for which the z-score was inactive: 0.785.

In the case of GCAAGCCAAAUUGUCCCGGTT against Usp39, the z-score is inactive: -0.00475.

GGGUUGUGGCUGCUACUAUTT against Pira2: the z-score was active: 2.18.

On to CCAUGUUCCUGGCAUAUAUTT against Opn4, for which the z-score is inactive: 0.889.

Turning to CCACAUAAGUGGCUUAUCATT against Slc35d2, the z-score was inactive: -1.79.

For the sequence GCGCGUGACAAGGAGGAUUTT against Ska3, the z-score is inactive: 1.03.

For CCGCCAUAGGCUCCUUCAATT against Acat3, the z-score is inactive: 0.915.

With GGAUCAGGAUUUAAUGAAUTT against Zc2hc1a, the z-score is inactive: -1.13.

Regarding GGUUAUCAAGAUUGCAUGUTT against Olfr853, the z-score was inactive: -0.646.

As for GGAGAUGUGUGCUAUGUGGTT against Gzmb, the z-score is inactive: 0.498.

Turning to GGAGAUUUCUUCCAUGGUCTT against Hspa2, the z-score is inactive: 0.445.

As to CGGAAGCCUCCACAAAUAATT against Apba1, the z-score was inactive: 0.0959.

As for AGGAAACAGCACCUUGUUGTT against Olfr205, the z-score is inactive: 0.192.

For GGCCUUGAAGGAGAUGCUATT against Rell2, the z-score was inactive: 0.887.

Take GGCGGAAGCCAUCUAACUUTT against Arhgef4: the z-score was inactive: -0.519.

Turning to GGAGCUAAAAGAGUGCUCCTT against Ints9, the z-score is inactive: -0.207.

Regarding GGAAUUUGUGAUCAGCGACTT against Cotl1, the z-score is inactive: 0.194.

Take GGGAAAUAACGAAUUUCAGTT against Zfp292: the z-score is inactive: 0.926.

Consider GGCAGGACAUUCUCAAAUCTT against Praf2, for which the z-score is active: 2.51.

With GGAUGCAAUGGCUGAGAAGTT against Pth, the z-score is inactive: 0.234.

Regarding GGAAGAGGUAGUUGCUAGATT against Gml2, the z-score is inactive: 0.82.

Consider GGUUCUGGAGCAAAUCCACTT against Styk1, for which the z-score was active: 2.37.

For the sequence GGACAGCCAGUAAAUACAUTT against Cd300c2, the z-score was inactive: 1.71.

For GGGCCUACAUUAUUCAGCATT against Dapl1, the z-score was inactive: -1.3.

As for GGUAUGCUCUCUGUUGACUTT against Olfr922, the z-score was inactive: 0.472.

In the case of GCCAAGUUCUCGAAUAUUATT against Pnpla8, the z-score is inactive: 1.11.

As to GGAUCAAUGGAUUCUGCACTT against Fam162a, the z-score was inactive: -0.808.

On to GCAGUAGGUGCCUUAUUGGTT against Rab11a, for which the z-score was inactive: -1.39.

In the case of CGCAAUGUGUUGGGCCUCATT against Pik3r5, the z-score was inactive: 1.28.

Take GGGUUAUUGAAUUAGUUCATT against Mybl1: the z-score is inactive: -0.14.

Consider CGUGUAUGAGGCUAAGUUATT against Gpr68, for which the z-score is inactive: 1.92.
